Results reported in PubChem BioAssay AID1487 (National Center for Advancing Translational Sciences (NCATS), 2009).
The other results are listed elsewhere or left out. Further columns of the screen follow, without active or inactive calls. Compounds called inactive in the main read-out are mostly missing here. Potencies come from curve fits of mixed quality, noted in brackets.

Experiment: qHTS Assay for Modulators of Lamin A Splicing
Settings: HeLa LMNA splicing GFP/RFP minigene ratio, 48 h
In short: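 S3 HeLa stable clones carrying a lamin A-EGFP splicing minigene plus DsRed2 were seeded at 600 cells/well in Opti-MEM with 2% FBS, pin-dosed and incubated 48 h at 37°C. Acumen cytometry (488 nm) gave the GFP/RFP total-intensity ratio.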

[1] = measured here: GFP splicing reporter channel
[2] = measured here: RFP viability control channel

## c1ccc2c(NCCCN3CCOCC3)c3ccccc3nc2c1
[1]
  AC50: 11.2 µM [falling, single point]
[2]
  AC50: 20 µM [falling, partial curve, poor fit]

## O=C(/C=C/c1cccc([N+](=O)[O-])c1)c1ccc2c(c1)OCCO2
[2]
  AC50: 20 µM [rising, partial curve, poor fit]

## Cc1cc2nnc(SCC(=O)Nc3cc(S(=O)(=O)N4CCOCC4)ccc3Cl)n2c2ccccc12
[1]
  AC50: 12.6 µM [rising, single point]
[2]
  AC50: 12.6 µM [rising, single point]

## CCc1ccc(NC(=O)COC(=O)CCCC2=NS(=O)(=O)c3ccccc3N2)cc1
[2]
  AC50: 0.891 µM [falling, full curve, poor fit]

## CC(=O)c1c(C)[nH]c(C(=O)COC(=O)c2cc(S(=O)(=O)N(C)c3ccccc3)ccc2Cl)c1C
[1]
  AC50: 1.41 µM [rising, full curve, poor fit]
[2]
  AC50: 5.01 µM [rising, partial curve, poor fit]

## CN(c1ccc(S(=O)(=O)N2CCOCC2)cn1)C1CCCCC1
[1]
  AC50: 17.8 µM [rising, partial curve]
[2]
  AC50: 17.8 µM [rising, partial curve]

## O=C(N/N=C\c1ccc(-c2ccccc2[N+](=O)[O-])o1)C1COc2ccccc2O1 (stereo unspecified)
[2]
  AC50: 35.5 µM [rising, partial curve, poor fit]

## Cc1nnsc1C(=O)N/N=C/c1cccc(C(F)(F)F)c1
[1]
  AC50: 0.0631 µM [falling, full curve]

## CCC1CCCCN1CCCNC(=O)c1cc2c(=O)[nH]c3ccccc3c2n1C (stereo unspecified)
[1]
  AC50: 0.02 µM [falling, full curve, poor fit]
[2]
  AC50: 0.02 µM [falling, full curve, poor fit]

## COc1ccc(-c2nc3cnc(Oc4ccccc4)nc3n(CCC#N)c2=O)cc1
[1]
  AC50: 3.98 µM [falling, full curve]
[2]
  AC50: 5.62 µM [falling, partial curve]

## CCCCNc1cc(NC(C)=O)cc2cc(OC)c(OC)cc12
[1]
  AC50: 1.26 µM [falling, single point]

## O=C(N=Nc1c(O)n(Cc2ccccc2)c2ccccc12)c1cc2ccccc2cc1O
[1]
  AC50: 3.98 µM [rising, partial curve]
[2]
  AC50: 3.55 µM [rising, full curve]

## CCS(=O)(=O)Nc1ccc(-c2cn3c(C)csc3n2)cc1
[1]
  AC50: 1.41 µM [rising, full curve, poor fit]

## Cc1ccc(C2=NN=C(NC(=O)CSc3nc(C)cc(C)n3)SC2)cc1
[1]
  AC50: 12.6 µM [falling, partial curve]
